# Data reported in the supplement of paper PMC8728848.
# This is one part of the list.
# B1: RbmA (Vibrio cholerae), A0A2H4NFB8 (protein)
# chain: MSNFKGSIMNKRHYYLASCLALLFSTASYAEVDCELQPVIEANLSLNQNQLASNGGYISSQLGIRNESCETVKFKYWLSIKGPEGIYFPAKAVVGVDTAQQESDALTDGRMLNVTRGFWVPEYMADGKYTVSLQVVAENGEVFKANQEFVKGGDLNSLPELNGLTIDIKNQFGINSVESTGGFVPFTIDLNNGREGEAKVEFWMTAVGPDGLIIPVHSREKWMIIAGNTFSKVRGINFDKSYPAGEYTINAQVVDIVSGERVEQLMTVVKK
# Assays:
# Test in all cases: glycan array binding signal (z-score within array); higher = stronger binding
# Conditions in all cases: glycan notation: IUPAC condensed, linker removed
# [1] = biological target: Fuc(a1-2)[Gal(a1-3)]Gal(b1-4)GlcNAc(b1-2)Man(a1-3)[Fuc(a1-2)[Gal(a1-3)]Gal(b1-4)GlcNAc(b1-2)Man(a1-6)]Man(b1-4)GlcNAc(b1-4)GlcNAc
# How it was run: (§1)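 Negative Z-scores can be read as non-binding. The Z-score is calculated within each array and then averaged across arrays of one protein sequence at different concentrations or buffers and across linkers. Arrays, 3228 in all, were curated from the Consortium for Functional Glycomics database and kept only where the protein sequence was available.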
# [2] = biological target: Fuc(a1-2)[Gal(a1-3)]Gal(b1-4)GlcNAc(b1-2)Man(a1-3)[Fuc(a1-2)[Gal(a1-3)]Gal(b1-4)GlcNAc(b1-2)Man(a1-6)]Man(b1-4)GlcNAc(b1-4)[Fuc(a1-6)]GlcNAc
# How it was run: as §1
# [3] = biological target: Fuc(a1-2)[Gal(a1-3)]Gal(b1-4)GlcNAc(b1-3)GalNAc
# How it was run: as §1
# [4] = biological target: Fuc(a1-2)[Gal(a1-3)]Gal(b1-4)GlcNAc(b1-6)GalNAc
# How it was run: as §1
# [5] = biological target: Fuc(a1-2)[Gal(a1-3)]Gal(b1-4)[Fuc(a1-3)]Glc
# How it was run: as §1
# [6] = biological target: Fuc(a1-2)[Gal(a1-3)]Gal(b1-4)[Fuc(a1-3)]GlcNAc
# How it was run: as §1
# [7] = biological target: Fuc(a1-2)[Gal(a1-3)]Gal(b1-4)[Fuc(a1-3)]GlcNAc(b1-3)GalNAc
# How it was run: as §1
# [8] = biological target: Fuc(a1-2)[Gal(a1-4)]Gal(b1-4)GlcNAc
# How it was run: as §1
# [9] = biological target: Fuc(a1-2)[GalNAc(a1-3)]Gal
# How it was run: as §1
# [10] = biological target: Fuc(a1-2)[GalNAc(a1-3)]Gal(b1-3)GalNAc(a1-3)[Fuc(a1-2)]Gal(b1-4)GlcNAc
# How it was run: as §1
# [11] = biological target: Fuc(a1-2)[GalNAc(a1-3)]Gal(b1-3)GalNAc(b1-3)Gal(a1-4)Gal(b1-4)Glc
# How it was run: as §1
# [12] = biological target: Fuc(a1-2)[GalNAc(a1-3)]Gal(b1-3)GlcNAc
# How it was run: as §1
# [13] = biological target: Fuc(a1-2)[GalNAc(a1-3)]Gal(b1-3)GlcNAc(b1-2)Man(a1-3)[Fuc(a1-2)[GalNAc(a1-3)]Gal(b1-3)GlcNAc(b1-2)Man(a1-6)]Man(b1-4)GlcNAc(b1-4)GlcNAc
# How it was run: as §1
# [14] = biological target: Fuc(a1-2)[GalNAc(a1-3)]Gal(b1-3)GlcNAc(b1-2)Man(a1-3)[Fuc(a1-2)[GalNAc(a1-3)]Gal(b1-3)GlcNAc(b1-2)Man(a1-6)]Man(b1-4)GlcNAc(b1-4)[Fuc(a1-6)]GlcNAc
# How it was run: as §1
# [15] = biological target: Fuc(a1-2)[GalNAc(a1-3)]Gal(b1-3)GlcNAc(b1-3)GalNAc
# How it was run: as §1
# [16] = biological target: Fuc(a1-2)[GalNAc(a1-3)]Gal(b1-3)GlcNAc(b1-6)GalNAc
# How it was run: as §1
# [17] = biological target: Fuc(a1-2)[GalNAc(a1-3)]Gal(b1-4)Glc
# How it was run: as §1
# [18] = biological target: Fuc(a1-2)[GalNAc(a1-3)]Gal(b1-4)GlcNAc
# How it was run: as §1
# [19] = biological target: Fuc(a1-2)[GalNAc(a1-3)]Gal(b1-4)GlcNAc(b1-2)Man
# How it was run: as §1
# [20] = biological target: Fuc(a1-2)[GalNAc(a1-3)]Gal(b1-4)GlcNAc(b1-2)Man(a1-3)[Fuc(a1-2)[GalNAc(a1-3)]Gal(b1-4)GlcNAc(b1-2)Man(a1-6)]Man(b1-4)GlcNAc(b1-4)GlcNAc
# How it was run: as §1
# [21] = biological target: Fuc(a1-2)[GalNAc(a1-3)]Gal(b1-4)GlcNAc(b1-2)Man(a1-3)[Fuc(a1-2)[GalNAc(a1-3)]Gal(b1-4)GlcNAc(b1-2)Man(a1-6)]Man(b1-4)GlcNAc(b1-4)[Fuc(a1-6)]GlcNAc
# How it was run: as §1
# [22] = biological target: Fuc(a1-2)[GalNAc(a1-3)]Gal(b1-4)GlcNAc(b1-3)Gal(b1-4)GlcNAc
# How it was run: as §1
# [23] = biological target: Fuc(a1-2)[GalNAc(a1-3)]Gal(b1-4)GlcNAc(b1-3)Gal(b1-4)GlcNAc(b1-3)Gal(b1-4)GlcNAc
# How it was run: as §1
# [24] = biological target: Fuc(a1-2)[GalNAc(a1-3)]Gal(b1-4)GlcNAc(b1-3)GalNAc
# How it was run: as §1
# [25] = biological target: Fuc(a1-2)[GalNAc(a1-3)]Gal(b1-4)GlcNAc(b1-3)[Fuc(a1-2)[GalNAc(a1-3)]Gal(b1-4)GlcNAc(b1-6)]GalNAc
# How it was run: as §1
# [26] = biological target: Fuc(a1-2)[GalNAc(a1-3)]Gal(b1-4)GlcNAc(b1-6)GalNAc
# How it was run: as §1
# [27] = biological target: Fuc(a1-2)[GalNAc(a1-3)]Gal(b1-4)[Fuc(a1-3)]GlcNAc
# How it was run: as §1
# [28] = biological target: Fuc(a1-2)[GalNAc(a1-3)]Gal(b1-4)[Fuc(a1-3)]GlcNAc(b1-3)GalNAc
# How it was run: as §1
# [29] = biological target: Fuc(a1-2)[GalNAc(a1-4)]Gal(b1-4)GlcNAc
# How it was run: as §1
# [30] = biological target: Fuc(a1-2)[GalNAc(b1-3)]Gal
# How it was run: as §1
# Fuc(a1-3)GlcNAc = biological target: Fuc(a1-3)GlcNAc
# How it was run: as §1
# [31] = biological target: Fuc(a1-3)[Gal(b1-4)]Glc6S
# How it was run: as §1
# [32] = biological target: Fuc(a1-3)[Gal(b1-4)]GlcNAc
# How it was run: as §1
# [33] = biological target: Fuc(a1-3)[Gal(b1-4)]GlcNAc(b1-2)Man
# How it was run: as §1
# [34] = biological target: Fuc(a1-3)[Gal(b1-4)]GlcNAc(b1-2)Man(a1-3)[Fuc(a1-3)[Gal(b1-4)]GlcNAc(b1-2)Man(a1-6)]Man(b1-4)GlcNAc(b1-4)GlcNAc
# How it was run: as §1
# [35] = biological target: Fuc(a1-3)[Gal(b1-4)]GlcNAc(b1-2)Man(a1-3)[Fuc(a1-3)[Gal(b1-4)]GlcNAc(b1-2)Man(a1-6)]Man(b1-4)GlcNAc(b1-4)[Fuc(a1-6)]GlcNAc
# How it was run: as §1
# [36] = biological target: Fuc(a1-3)[Gal(b1-4)]GlcNAc(b1-3)Gal(b1-3)[Fuc(a1-4)]GlcNAc
# How it was run: as §1
binder,measurement,setting,value
B1,glycan array binding signal (z-score),[1],-0.767
same,glycan array binding signal (z-score),[2],-0.172
same,glycan array binding signal (z-score),[3],-0.562
same,glycan array binding signal (z-score),[4],-0.877
same,glycan array binding signal (z-score),[5],-0.11
same,glycan array binding signal (z-score),[6],0.204
same,glycan array binding signal (z-score),[7],-0.943
same,glycan array binding signal (z-score),[8],-0.6
same,glycan array binding signal (z-score),[9],0.428
same,glycan array binding signal (z-score),[10],-0.209
same,glycan array binding signal (z-score),[11],0.289
same,glycan array binding signal (z-score),[12],-0.442
same,glycan array binding signal (z-score),[13],0.451
same,glycan array binding signal (z-score),[14],-1.44
same,glycan array binding signal (z-score),[15],0.855
same,glycan array binding signal (z-score),[16],-0.859
same,glycan array binding signal (z-score),[17],-0.634
same,glycan array binding signal (z-score),[18],-0.331
same,glycan array binding signal (z-score),[19],-0.393
same,glycan array binding signal (z-score),[20],-0.735
same,glycan array binding signal (z-score),[21],0.066
same,glycan array binding signal (z-score),[22],-0.198
same,glycan array binding signal (z-score),[23],1.52
same,glycan array binding signal (z-score),[24],2.25
same,glycan array binding signal (z-score),[25],0.012
same,glycan array binding signal (z-score),[26],1.33
same,glycan array binding signal (z-score),[27],-0.042
same,glycan array binding signal (z-score),[28],0.264
same,glycan array binding signal (z-score),[29],-0.816
same,glycan array binding signal (z-score),[30],-0.195
same,glycan array binding signal (z-score),Fuc(a1-3)GlcNAc,-0.597
same,glycan array binding signal (z-score),[31],-0.877
same,glycan array binding signal (z-score),[32],-0.216
same,glycan array binding signal (z-score),[33],-0.564
same,glycan array binding signal (z-score),[34],1.58
same,glycan array binding signal (z-score),[35],-0.094
same,glycan array binding signal (z-score),[36],-0.858

# Pulled one by one from the list above:
binder,measurement,setting,value
B1,glycan array binding signal (z-score),[9],0.428
same,glycan array binding signal (z-score),[36],-0.858
